{"source": "paper PMC6063443", "assay_in_all_cases": "co-IP; total intestinal lysates of brackish water-acclimated Indian medaka or fresh water-acclimated Japanese medaka; immunoprecipitation with anti-FXYD12, pre-immune serum (negative control) or anti-NKA α (α5) using the ImmunoCruz IP/WB Optima System; immunoblot for NKA α (100 kDa) or FXYD12 (10 kDa)", "key": {"[1]": {"biological_target": "T1, Japanese medaka (Oryzias latipes) FXYD12 (Oryzias latipes (endogenous in intestine)) (UniProt R4N6V2)", "T1 sequence": "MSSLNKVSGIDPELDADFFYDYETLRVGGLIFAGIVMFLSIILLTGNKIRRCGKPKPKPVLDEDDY"}, "[2]": {"biological_target": "T2, Indian medaka (Oryzias dancena) FXYD12 (Oryzias dancena (endogenous in intestine)) (UniProt R4N338)", "T2 sequence": "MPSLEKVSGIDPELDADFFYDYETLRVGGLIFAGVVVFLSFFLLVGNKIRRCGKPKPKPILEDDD"}, "[3]": {"biological_target": "Indian medaka (Oryzias dancena) Na+/K+-ATPase α-subunit (Oryzias dancena (endogenous in intestine))"}, "[4]": {"biological_target": "Japanese medaka (Oryzias latipes) Na+/K+-ATPase α-subunit (Oryzias latipes (endogenous in intestine))"}}, "note": "These are yes or no findings as the source states them, for the method shown. Binding seen in cells or lysates may run through a third protein. Binding calls can cover weak binding; strength is not graded here.", "data": [{"molecule": "Japanese medaka (Oryzias latipes) Na+/K+-ATPase α-subunit", "values": [{"measurement": "binding", "setting": "[1]", "result": "binds"}]}, {"molecule": "Indian medaka (Oryzias dancena) Na+/K+-ATPase α-subunit", "values": [{"measurement": "binding", "setting": "[2]", "result": "binds"}]}, {"molecule": "Indian medaka (Oryzias dancena) FXYD12 (protein, UniProt R4N338 1-65) MPSLEKVSGIDPELDADFFYDYETLRVGGLIFAGVVVFLSFFLLVGNKIRRCGKPKPKPILEDDD", "values": [{"measurement": "binding", "setting": "[3]", "result": "binds"}]}, {"molecule": "Japanese medaka (Oryzias latipes) FXYD12 (protein, UniProt R4N6V2 1-66) MSSLNKVSGIDPELDADFFYDYETLRVGGLIFAGIVMFLSIILLTGNKIRRCGKPKPKPVLDEDDY", "values": [{"measurement": "binding", "setting": "[4]", "result": "binds"}]}]}
